Source: the supplement of paper PMC11006884
The list shows a part of the results, in another mix than the full data. Single values of this set are uncertain.

Amino acid sequences for entries named in this document (tags omitted). A change or cut given only in a name is not applied to a line headed by its entry.
UniProt Q7KZF4: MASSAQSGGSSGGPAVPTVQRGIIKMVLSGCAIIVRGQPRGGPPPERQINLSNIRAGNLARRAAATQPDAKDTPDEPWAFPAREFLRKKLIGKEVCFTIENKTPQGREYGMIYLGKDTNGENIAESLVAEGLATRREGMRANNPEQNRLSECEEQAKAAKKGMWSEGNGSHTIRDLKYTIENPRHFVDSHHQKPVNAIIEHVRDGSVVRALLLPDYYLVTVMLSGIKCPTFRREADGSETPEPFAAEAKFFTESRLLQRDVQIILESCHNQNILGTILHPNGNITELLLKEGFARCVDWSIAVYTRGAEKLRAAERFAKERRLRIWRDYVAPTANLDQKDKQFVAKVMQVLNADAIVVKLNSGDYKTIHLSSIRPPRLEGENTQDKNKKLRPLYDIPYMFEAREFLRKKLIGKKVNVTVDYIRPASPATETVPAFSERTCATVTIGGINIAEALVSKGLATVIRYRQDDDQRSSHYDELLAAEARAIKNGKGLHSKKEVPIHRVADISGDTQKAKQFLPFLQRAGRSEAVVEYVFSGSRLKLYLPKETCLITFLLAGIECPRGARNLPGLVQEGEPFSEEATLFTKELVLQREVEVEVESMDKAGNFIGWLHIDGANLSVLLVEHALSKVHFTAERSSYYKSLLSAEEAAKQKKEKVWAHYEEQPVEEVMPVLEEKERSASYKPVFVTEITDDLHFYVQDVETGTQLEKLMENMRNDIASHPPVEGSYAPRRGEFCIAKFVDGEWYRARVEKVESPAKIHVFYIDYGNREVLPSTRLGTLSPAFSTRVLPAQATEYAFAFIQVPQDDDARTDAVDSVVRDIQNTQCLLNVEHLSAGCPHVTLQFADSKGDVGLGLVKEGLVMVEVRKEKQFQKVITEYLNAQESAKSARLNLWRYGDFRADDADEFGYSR
UniProt Q7Z5K2: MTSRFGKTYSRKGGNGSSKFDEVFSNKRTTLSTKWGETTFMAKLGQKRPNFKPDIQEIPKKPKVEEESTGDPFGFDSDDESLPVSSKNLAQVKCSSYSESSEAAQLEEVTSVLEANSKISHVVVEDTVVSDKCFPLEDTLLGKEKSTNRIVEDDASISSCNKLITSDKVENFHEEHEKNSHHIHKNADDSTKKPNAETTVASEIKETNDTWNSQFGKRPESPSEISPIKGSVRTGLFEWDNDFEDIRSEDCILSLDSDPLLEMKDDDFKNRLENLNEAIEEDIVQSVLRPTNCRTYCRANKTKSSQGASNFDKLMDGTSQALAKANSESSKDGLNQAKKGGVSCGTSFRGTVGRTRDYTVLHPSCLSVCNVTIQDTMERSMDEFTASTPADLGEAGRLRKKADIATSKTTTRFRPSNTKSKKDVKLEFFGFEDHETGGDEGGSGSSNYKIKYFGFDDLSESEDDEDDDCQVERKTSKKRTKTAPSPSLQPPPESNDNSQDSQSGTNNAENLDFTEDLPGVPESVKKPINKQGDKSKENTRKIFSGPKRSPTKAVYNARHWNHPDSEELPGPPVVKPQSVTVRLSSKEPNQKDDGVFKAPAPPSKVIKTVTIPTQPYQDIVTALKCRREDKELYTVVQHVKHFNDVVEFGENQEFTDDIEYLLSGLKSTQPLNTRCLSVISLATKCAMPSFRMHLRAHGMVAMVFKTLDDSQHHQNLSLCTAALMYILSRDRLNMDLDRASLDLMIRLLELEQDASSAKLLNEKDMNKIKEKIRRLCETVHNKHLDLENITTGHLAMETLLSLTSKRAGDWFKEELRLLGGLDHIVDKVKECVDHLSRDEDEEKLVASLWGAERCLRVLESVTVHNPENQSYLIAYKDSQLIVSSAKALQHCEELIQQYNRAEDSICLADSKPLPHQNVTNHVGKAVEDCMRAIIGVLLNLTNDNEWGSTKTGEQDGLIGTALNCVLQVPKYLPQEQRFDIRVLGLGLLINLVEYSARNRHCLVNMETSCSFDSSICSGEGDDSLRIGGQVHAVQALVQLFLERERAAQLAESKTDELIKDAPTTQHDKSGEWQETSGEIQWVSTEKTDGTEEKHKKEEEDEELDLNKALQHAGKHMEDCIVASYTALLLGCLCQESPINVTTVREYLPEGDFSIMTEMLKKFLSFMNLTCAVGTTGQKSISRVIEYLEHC
UniProt Q8IX01: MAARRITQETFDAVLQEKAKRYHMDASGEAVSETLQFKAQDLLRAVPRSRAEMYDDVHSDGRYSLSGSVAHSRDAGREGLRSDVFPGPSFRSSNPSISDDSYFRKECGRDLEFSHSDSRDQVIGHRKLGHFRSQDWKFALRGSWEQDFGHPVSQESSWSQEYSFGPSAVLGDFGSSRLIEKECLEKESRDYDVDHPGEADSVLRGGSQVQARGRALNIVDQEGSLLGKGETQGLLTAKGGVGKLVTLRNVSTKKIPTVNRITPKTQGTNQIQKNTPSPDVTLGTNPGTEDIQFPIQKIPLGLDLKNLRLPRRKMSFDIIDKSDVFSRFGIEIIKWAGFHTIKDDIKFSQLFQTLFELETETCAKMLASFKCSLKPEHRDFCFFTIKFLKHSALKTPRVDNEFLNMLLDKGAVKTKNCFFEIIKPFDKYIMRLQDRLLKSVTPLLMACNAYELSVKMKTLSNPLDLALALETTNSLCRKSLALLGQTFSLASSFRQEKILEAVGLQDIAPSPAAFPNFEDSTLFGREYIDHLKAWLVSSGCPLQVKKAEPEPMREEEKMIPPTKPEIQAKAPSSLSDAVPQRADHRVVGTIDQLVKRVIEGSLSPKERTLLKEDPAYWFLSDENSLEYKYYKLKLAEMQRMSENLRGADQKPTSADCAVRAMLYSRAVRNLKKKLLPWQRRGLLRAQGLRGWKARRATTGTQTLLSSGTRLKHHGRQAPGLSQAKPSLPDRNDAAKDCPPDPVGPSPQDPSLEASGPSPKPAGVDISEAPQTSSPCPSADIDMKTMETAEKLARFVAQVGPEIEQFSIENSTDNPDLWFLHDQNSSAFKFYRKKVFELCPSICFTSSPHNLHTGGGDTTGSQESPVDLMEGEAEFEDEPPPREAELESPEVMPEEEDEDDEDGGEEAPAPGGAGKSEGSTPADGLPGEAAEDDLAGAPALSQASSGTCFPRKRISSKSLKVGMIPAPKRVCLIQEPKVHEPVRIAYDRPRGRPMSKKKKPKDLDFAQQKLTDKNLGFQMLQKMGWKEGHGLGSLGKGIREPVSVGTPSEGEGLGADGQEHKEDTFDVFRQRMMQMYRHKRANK
UniProt Q86SX6: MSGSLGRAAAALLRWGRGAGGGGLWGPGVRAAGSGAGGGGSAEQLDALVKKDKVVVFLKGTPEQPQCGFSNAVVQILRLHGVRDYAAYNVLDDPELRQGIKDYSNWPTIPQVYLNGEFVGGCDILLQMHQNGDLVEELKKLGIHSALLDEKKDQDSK
UniProt Q86VP6: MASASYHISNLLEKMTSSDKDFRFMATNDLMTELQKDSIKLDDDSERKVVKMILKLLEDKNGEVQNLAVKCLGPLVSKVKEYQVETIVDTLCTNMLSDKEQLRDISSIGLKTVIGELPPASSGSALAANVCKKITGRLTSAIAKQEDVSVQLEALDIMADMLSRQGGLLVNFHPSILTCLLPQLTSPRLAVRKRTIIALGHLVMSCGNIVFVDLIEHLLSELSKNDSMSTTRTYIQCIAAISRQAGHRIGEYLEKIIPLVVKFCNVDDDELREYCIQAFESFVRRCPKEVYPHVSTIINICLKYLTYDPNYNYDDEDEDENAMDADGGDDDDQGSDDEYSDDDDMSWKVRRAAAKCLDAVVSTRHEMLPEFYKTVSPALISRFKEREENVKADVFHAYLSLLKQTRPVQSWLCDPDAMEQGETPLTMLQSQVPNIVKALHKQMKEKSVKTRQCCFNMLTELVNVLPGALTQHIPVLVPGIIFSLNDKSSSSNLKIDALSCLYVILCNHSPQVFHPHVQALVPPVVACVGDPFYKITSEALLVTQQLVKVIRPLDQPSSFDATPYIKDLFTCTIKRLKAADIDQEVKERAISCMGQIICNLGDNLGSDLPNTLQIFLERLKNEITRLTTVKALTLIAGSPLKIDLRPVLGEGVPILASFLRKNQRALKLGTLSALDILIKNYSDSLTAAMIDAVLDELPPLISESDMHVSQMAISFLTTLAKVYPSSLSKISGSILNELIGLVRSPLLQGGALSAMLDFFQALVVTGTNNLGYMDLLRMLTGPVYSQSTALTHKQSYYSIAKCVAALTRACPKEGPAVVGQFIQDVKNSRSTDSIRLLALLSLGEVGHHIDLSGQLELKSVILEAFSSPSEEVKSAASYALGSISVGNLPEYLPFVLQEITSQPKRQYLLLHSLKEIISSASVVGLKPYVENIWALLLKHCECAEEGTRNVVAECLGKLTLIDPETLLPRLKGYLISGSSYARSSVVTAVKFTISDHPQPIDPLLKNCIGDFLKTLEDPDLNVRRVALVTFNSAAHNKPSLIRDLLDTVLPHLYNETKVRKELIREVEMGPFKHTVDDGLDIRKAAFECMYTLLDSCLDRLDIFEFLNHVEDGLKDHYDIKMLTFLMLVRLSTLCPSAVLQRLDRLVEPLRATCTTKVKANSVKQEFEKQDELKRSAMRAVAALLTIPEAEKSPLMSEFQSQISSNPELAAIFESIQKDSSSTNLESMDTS
UniProt Q7Z2W4: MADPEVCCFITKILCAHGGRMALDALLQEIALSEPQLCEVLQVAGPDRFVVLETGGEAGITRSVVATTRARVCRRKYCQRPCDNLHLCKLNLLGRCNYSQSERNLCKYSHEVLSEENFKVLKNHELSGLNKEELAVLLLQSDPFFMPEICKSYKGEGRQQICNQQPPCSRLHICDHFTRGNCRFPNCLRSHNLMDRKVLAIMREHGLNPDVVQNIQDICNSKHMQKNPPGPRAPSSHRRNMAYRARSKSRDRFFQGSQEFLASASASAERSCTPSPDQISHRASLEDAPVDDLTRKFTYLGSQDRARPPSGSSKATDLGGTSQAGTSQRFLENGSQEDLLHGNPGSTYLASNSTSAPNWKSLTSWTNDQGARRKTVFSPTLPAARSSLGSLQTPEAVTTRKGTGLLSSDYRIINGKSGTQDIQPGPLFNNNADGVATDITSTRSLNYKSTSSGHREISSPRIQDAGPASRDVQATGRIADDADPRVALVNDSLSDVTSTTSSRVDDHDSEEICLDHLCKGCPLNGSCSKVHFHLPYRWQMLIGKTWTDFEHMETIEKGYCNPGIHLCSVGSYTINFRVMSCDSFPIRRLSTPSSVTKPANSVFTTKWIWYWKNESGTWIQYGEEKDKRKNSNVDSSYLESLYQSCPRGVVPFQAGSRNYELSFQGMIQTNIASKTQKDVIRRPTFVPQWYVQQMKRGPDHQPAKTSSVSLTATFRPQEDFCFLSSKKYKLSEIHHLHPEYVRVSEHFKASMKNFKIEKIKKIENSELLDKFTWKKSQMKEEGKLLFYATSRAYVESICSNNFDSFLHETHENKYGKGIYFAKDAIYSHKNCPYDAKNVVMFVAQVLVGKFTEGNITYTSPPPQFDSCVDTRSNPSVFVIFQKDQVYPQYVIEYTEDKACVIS
UniProt Q8IXK0: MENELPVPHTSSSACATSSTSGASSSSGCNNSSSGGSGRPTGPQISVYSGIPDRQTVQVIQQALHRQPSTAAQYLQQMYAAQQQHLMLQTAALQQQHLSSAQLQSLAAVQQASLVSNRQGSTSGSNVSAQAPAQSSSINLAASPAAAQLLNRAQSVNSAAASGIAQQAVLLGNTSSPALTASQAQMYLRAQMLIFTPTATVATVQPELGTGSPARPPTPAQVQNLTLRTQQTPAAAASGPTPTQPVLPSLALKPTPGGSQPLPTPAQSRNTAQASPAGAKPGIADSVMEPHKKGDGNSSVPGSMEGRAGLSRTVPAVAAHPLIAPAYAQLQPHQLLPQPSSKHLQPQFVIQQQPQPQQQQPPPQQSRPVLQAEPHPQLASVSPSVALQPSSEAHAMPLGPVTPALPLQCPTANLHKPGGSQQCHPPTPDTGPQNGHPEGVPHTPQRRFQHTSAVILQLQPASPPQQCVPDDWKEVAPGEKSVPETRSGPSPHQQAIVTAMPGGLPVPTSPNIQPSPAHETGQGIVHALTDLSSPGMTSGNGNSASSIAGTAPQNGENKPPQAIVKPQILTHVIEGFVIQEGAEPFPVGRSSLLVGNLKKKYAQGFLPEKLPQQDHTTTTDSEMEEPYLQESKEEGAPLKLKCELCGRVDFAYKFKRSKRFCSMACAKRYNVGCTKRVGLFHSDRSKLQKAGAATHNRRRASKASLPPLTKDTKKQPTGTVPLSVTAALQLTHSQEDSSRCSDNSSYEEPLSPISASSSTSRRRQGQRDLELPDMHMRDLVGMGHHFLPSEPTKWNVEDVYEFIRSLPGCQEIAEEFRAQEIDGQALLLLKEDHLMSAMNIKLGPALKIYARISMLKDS
UniProt Q7Z4W1: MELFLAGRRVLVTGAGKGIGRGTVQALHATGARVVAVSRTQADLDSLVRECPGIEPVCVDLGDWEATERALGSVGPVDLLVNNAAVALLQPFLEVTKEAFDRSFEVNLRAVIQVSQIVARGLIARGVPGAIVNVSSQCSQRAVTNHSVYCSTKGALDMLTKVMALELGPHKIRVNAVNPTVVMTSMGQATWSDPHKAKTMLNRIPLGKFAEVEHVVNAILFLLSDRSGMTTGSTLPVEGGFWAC

These targets were tested with COC(=O)/C=C/c1ccccc1 [methyl cinnamate] (assay: log2 ratio of iodoacetamide-alkyne labeling of the cysteine site, DMSO over compound (competition); higher = stronger covalent engagement of the cysteine by the compound, active = 1 or more). Conditions: 500 µM; treatment time 1 h; system: HEK293T cell lysate.
Procedure, shortened: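 For each cysteine, the log2 competition ratio is mean control-channel reporter intensity over mean compound-channel reporter intensity. HEK293T lysate (2 mg/mL) was exposed to vehicle or electrophile (500 µM, 1 h, ambient temperature), labelled with iodoacetamide alkyne (1 h), clicked to sCIP-TMT reagents, digested overnight with trypsin at 37 °C, streptavidin-enriched and analysed by Orbitrap Eclipse LC-MS/MS with FAIMS and FragPipe. Cysteines quantified in only one of three replicates, each with duplicate channels, were excluded.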

log2 ratio of iodoacetamide-alkyne labeling, inactive:
SND1 C228 (UniProt Q7KZF4) 0.0662
PHF6 C28 (UniProt Q8IWS0) 0.202
PNPLA6 C409 (UniProt Q8IY17) 0.188
UniProt Q7Z5K2_C344 0.395
HUWE1 C3239 (UniProt Q7Z6Z7) 0.0211
UniProt Q8IX01_C947 -0.0655
SND1 C826 (UniProt Q7KZF4) 0.164
COPS6 C283 (UniProt Q7L5N1) 0.238
UniProt Q8IYL2_C666 0.201
HUWE1 C790 (UniProt Q7Z6Z7) 0.484
IRF2BP2 C505 (UniProt Q7Z5L9) -0.0444
SMC5 C881 (UniProt Q8IY18) 0.153
IRF2BP1 C36 (UniProt Q8IU81) 0.00936
GLRX5 C67 (UniProt Q86SX6) 0.298
SND1 C560 (UniProt Q7KZF4) 0.229
UniProt Q8IX90_C290 -0.541
PARG C603 (UniProt Q86W56) -0.0134
CAND1 C179 (UniProt Q86VP6) 0.0508
UniProt Q7Z5K2_C160 0.269
PBRM1 C50 (UniProt Q86U86) -0.27
UniProt Q7Z4V5_C631 0.0624
UniProt Q8IXM2_C66 0.471
DENND4A C35 (UniProt Q7Z401) 0.168
UniProt Q8IX01_C447 0.00033
ELMOD2 C285 (UniProt Q8IZ81) 0.0321
CEP97 C484 (UniProt Q8IW35) -0.323
ZC3HAV1 C219 (UniProt Q7Z2W4) 0.081
UniProt Q7Z434_C133 0.32
SUPT6H C1198 (UniProt Q7KZ85) -0.0546
NCAPG2 C776 (UniProt Q86XI2) 0.186
UniProt Q7Z5K2_C964 0.0166
UniProt Q7Z2T5_C730 0.335
CAND1 C92 (UniProt Q86VP6) -0.222
PHC2 C740 (UniProt Q8IXK0) 0.279
HPS6 C695 (UniProt Q86YV9) 0.0423
DCXR C150 (UniProt Q7Z4W1) 0.037
MEPCE C177 (UniProt Q7L2J0) 0.0226

7 neighbouring records from above, for reference:
log2 ratio of iodoacetamide-alkyne labeling, inactive:
ZC3HAV1 C219 (UniProt Q7Z2W4) 0.081
UniProt Q7Z434_C133 0.32
SUPT6H C1198 (UniProt Q7KZ85) -0.0546
NCAPG2 C776 (UniProt Q86XI2) 0.186
UniProt Q7Z5K2_C964 0.0166
UniProt Q7Z2T5_C730 0.335
CAND1 C92 (UniProt Q86VP6) -0.222
